Data on 14 compounds can be found in the supplement of paper PMC10735217.

This is one part of the list. Single values are uncertain here, since repeats match poorly.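 The human kidney-derived cells carry a stably integrated construct of eight TEAD-binding elements driving luciferase, read by luminescence in a drug-repurposing library screen. A compound counts as a hit when its signal is more than five robust Z scores above the plate mean.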

The test system of the test is HEK293A TEAD-LUC reporter. In words: TEAD-luciferase reporter activity (YAP activation), robust Z score vs plate; higher = stronger YAP/TEAD activation. The settings on record: 24 h. In general terms: A reporter such as luciferase makes a cellular process visible.

As to `c1ccc2c(-c3nc4cnccc4[nH]3)c[nH]c2c1`, the TEAD-luciferase reporter activity (compound concentration: 200 nM) was inactive: 3.56 and the TEAD-luciferase reporter activity (compound concentration: 10 uM) was inactive: 1.32.
On to `Fc1ccc2c(c1)[nH]c1cc(Cc3cccnc3)ccc12`, for which the TEAD-luciferase reporter activity is, setting by setting: (compound concentration: 200 nM) inactive: -2.16; (compound concentration: 2 uM) inactive: -1.46; (compound concentration: 10 uM) inactive: 0.196.
As to `Cc1nc(N)sc1-c1ccnc(Nc2ccc(N3CCOCC3)cc2)n1`, the TEAD-luciferase reporter activity (compound concentration: 200 nM) was inactive: -0.107, the TEAD-luciferase reporter activity (compound concentration: 2 uM) was inactive: 0.103 and the TEAD-luciferase reporter activity (compound concentration: 10 uM) was inactive: 0.992.
On the same counts, the results for `Nc1ccc(C(=O)OCc2cccnc2)cn1` are inactive: 3.98, inactive: -0.345 and inactive: 0.738.
On the same counts, the results for `CC1(C)CC(C)(C)c2cc(C#Cc3ccc(C(=O)O)cc3)ccc2O1` are inactive: -1.15, inactive: 2.24 and inactive: 1.27.
Turning to `CCC(CC)C(NC(C)=O)C1C[C@@H](C(=O)O)C[C@H]1NC(=N)N` (stereo partly specified), the TEAD-luciferase reporter activity was inactive: 0.289 (compound concentration: 200 nM), inactive: -0.286 (compound concentration: 2 uM) and inactive: -0.805 (compound concentration: 10 uM).
On the same counts, the results for `Cc1nc(Nc2n[nH]c3c2CN(C(=O)N[C@H](CNC(C)C)c2ccccc2)C3(C)C)c2sccc2n1` are inactive: -1.89, inactive: -1.94 and inactive: -0.838.
On the same counts, the results for `CCCCC(=O)O[C@]1(C(=O)CO)CC[C@H]2[C@@H]3CCC4=CC(=O)CC[C@]4(C)[C@H]3[C@@H](O)C[C@@]21C` [Hydrocortisone valerate] are inactive: -0.765, inactive: 2.12 and inactive: 3.46.
On the same counts, the results for `CC(C)C[C@H](NC(=O)[C@@H](NC(=O)CNC(=O)CN)C(C)C)C(=O)N[C@H](C(=O)N[C@@H](CCC(N)=O)C(=O)N1CCC[C@H]1C(=O)NCC(=O)O)C(C)C` [Larazotide acetate] are inactive: -2.33, inactive: -0.48 and inactive: -0.359.
On to `COc1ccc(/C=C(\C#N)c2cccnc2)cc1OC`, for which the TEAD-luciferase reporter activity is inactive: -1.78 (compound concentration: 200 nM), inactive: 0.388 (compound concentration: 2 uM) and inactive: -1.46 (compound concentration: 10 uM).
On the same counts, the results for `CC(=O)[C@@]12O[C@](C)(c3ccccc3)O[C@@H]1CC1C3CCC4=CC(=O)CC[C@]4(C)C3CC[C@@]12C` (stereo partly specified) are inactive: -1.43, inactive: -0.46 and inactive: 1.83.
On the same counts, the results for `Nc1ncnc2c1ncn2CC(CF)OCP(=O)(O)O` (stereo unspecified) are inactive: -0.955, inactive: 0.15 and inactive: 0.312.
On the same counts, the results for `CC[C@@H]1/C=C(\C)C[C@H](C)C[C@H](OC)[C@H]2O[C@@](O)(C(=O)C(=O)N3CCCC[C@H]3C(=O)O[C@H](/C(C)=C/[C@@H]3CC[C@H](Cl)[C@H](OC)C3)[C@H](C)[C@@H](O)CC1=O)[C@H](C)C[C@@H]2OC` [Pimecrolimus] are inactive: -0.495, inactive: 0.725 and inactive: 0.479.
In the case of `COc1ccc2cc(-c3ccc(OCC(O)CNC(C)(C)C)cc3)n(C)c(=O)c2c1` (stereo unspecified) [draquinolol], the TEAD-luciferase reporter activity by setting is: (compound concentration: 200 nM) inactive: -0.497; (compound concentration: 2 uM) inactive: 0.333; (compound concentration: 10 uM) inactive: 4.37.
